Results: patent US20120156198A1 (Hoffmann-La Roche, published 2012)
Results are given in words; binding and its absence hold for the method and conditions named. Some binding calls cover weakened binding; strength is not graded here. For some assays here: Sequences can lack the tags named with a protein.

By UniProt entry, the sequences of proteins in these tests, tags left out. Where a name states a change or a piece, a line headed by the entry shows the natural chain unless it says otherwise.
UniProt Q14116: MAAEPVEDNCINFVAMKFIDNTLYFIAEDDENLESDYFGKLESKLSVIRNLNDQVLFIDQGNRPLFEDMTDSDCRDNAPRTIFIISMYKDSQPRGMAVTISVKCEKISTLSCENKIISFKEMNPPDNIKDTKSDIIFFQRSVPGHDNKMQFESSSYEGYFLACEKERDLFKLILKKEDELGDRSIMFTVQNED

Columns and labels:
[1] = target: cynomolgus IL-18Rα:Fc (cynomolgus; human); experiment: SPR (BIAcore 3000, 25°C), Fc-tagged variant captured, mixture of both proteins at 100 nM
[2] = target: T1, wild type shIL-18Rα:Fc (human) (UniProt Q13478); experiment: as above
T1 sequence: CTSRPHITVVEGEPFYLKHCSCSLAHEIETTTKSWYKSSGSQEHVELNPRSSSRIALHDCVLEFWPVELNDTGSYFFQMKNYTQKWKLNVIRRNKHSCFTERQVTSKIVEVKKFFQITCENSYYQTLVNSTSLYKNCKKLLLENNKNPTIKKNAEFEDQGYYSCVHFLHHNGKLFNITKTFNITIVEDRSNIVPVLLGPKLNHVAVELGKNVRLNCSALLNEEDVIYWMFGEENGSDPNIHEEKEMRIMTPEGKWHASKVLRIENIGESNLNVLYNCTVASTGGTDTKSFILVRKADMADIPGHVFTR

binding [1]: binds
binding [2]: binds
Substance: IL-18/IL-18Rβ (control): mixture of the natural ligands IL-18 and IL-18Rβ (from UniProt Q14116 37-193; O95256 20-356)
